Data published in the supplement of paper PMC11732987, “Enantioselective OTUD7B fragment discovery through chemoproteomics screening and high-throughput optimisation” (Communications Chemistry, 2025).
Some of the results follow. The data scatter; read single values as rough.

The compounds below were run against ATP1A1 C249 (UniProt P05023) (assay: log2 mean competition ratio of IA-DTB cysteine labelling (DMSO/compound) (log2 ratio); higher = stronger cysteine engagement by compound). Details: 50 µM; treatment time: 4 h; cell line lysate: HEK293T.
Procedure: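 IA-DTB competitive cysteine chemoproteomics in HEK293T RIPA lysate. Lysates were treated with compound 29 or 30 at 50 or 200 µM for 4 h, then IA-DTB (500 µM, 1 h), trypsin-digested, NeutrAvidin-enriched and analysed by diaPASEF. Competition ratio = intensity DMSO / intensity compound (n=4 treated, n=64 DMSO); binding: mean log2 CR ≥ 1 and p ≤ 0.05 plus QC filters. Target is the cysteine site.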

Compound | log2 mean competition ratio
O=C(CCl)N[C@@H]1CCCc2ccccc21 | 0.234
O=C(CCl)N[C@H]1CCCc2ccccc21 | 0.503

Same assay, conditions: 200 µM; treatment time: 4 h; cell line lysate: HEK293T

Compound | log2 mean competition ratio
O=C(CCl)N[C@@H]1CCCc2ccccc21 | 0.238
O=C(CCl)N[C@H]1CCCc2ccccc21 | 0.282
